# This is one part of the list. For some of these results: The exact form of the protein is not confirmed.
# Sequences of proteins named here, by UniProt entry; tags and fusion partners are left off. A change or cut given only in a name is not applied to a line headed by its entry.
# UniProt Q9Y617: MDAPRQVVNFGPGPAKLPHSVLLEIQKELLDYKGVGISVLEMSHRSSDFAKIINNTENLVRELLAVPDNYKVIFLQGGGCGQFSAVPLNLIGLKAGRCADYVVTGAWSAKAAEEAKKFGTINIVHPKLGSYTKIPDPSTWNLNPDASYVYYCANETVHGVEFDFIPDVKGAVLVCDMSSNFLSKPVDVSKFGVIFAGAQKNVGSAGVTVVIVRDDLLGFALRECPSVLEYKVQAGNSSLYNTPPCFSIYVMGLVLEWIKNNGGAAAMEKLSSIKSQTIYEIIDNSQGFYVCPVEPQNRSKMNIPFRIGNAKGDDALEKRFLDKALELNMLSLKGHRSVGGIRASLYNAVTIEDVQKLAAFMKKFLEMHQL
# How the values were obtained:
# Assay in all cases: protein microarray (ProtoArray v5.0), streptavidin-Alexa Fluor 647
# Conditions in all cases: 3'-biotin; 20 mM Tris (pH 7.5), 5 mM MgCl2, 100 mM KCl, 0.1% Tween-20, A/T-rich and random oligonucleotide blockers; temperature not stated; high values mean tight binding
# PRPSAP2 (human) = tested on: PRPSAP2 (human)
# PRRG1 (human) = tested on: PRRG1 (human)
# PRRG2 = target: T1, PRRG2 (UniProt O14669)
# T1 sequence: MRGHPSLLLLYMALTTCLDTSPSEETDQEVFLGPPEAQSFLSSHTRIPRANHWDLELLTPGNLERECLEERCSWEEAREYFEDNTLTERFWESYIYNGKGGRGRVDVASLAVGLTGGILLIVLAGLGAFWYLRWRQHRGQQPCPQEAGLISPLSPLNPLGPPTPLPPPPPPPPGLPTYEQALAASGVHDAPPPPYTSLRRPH
# PRRT2 (human) = tested on: PRRT2 (human)
# PRSS23 (human) = tested on: PRSS23 (human)
# PSAT1 = PSAT1 (UniProt Q9Y617)
# PSCD2 = target: T2, PSCD2 (UniProt Q99418)
# T2 sequence: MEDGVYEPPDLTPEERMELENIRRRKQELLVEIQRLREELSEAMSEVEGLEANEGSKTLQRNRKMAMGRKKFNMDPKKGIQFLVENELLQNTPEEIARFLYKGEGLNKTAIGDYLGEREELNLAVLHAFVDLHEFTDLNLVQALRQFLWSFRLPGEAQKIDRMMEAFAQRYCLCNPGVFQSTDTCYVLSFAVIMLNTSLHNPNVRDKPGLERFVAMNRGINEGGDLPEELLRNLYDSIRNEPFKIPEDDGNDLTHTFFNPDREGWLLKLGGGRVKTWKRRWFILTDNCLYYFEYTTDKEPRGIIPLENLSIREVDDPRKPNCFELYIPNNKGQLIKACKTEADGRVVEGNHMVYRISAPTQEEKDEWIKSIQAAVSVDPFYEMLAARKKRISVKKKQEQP
# PSCD4 (human) = tested on: PSCD4 (human)
# PSENEN (human) = tested on: PSENEN (human)
# PSG11 (human) = tested on: PSG11 (human)
sequence,measurement,setting,value
GGGAGGCTGAGGCAGG [G4-1 biotinylated (PQS2)],binding signal,PRPSAP2 (human),-0.329 z-score
same,binding signal,PRRG1 (human),-0.33 z-score
same,binding signal,PRRG2,-0.352 z-score
same,binding signal,PRRT2 (human),-0.342 z-score
same,binding signal,PRSS23 (human),-0.3 z-score
same,binding signal,PSAT1,-0.353 z-score
same,binding signal,PSCD2,-0.339 z-score
same,binding signal,PSCD4 (human),-0.303 z-score
same,binding signal,PSENEN (human),-0.295 z-score
same,binding signal,PSG11 (human),-0.315 z-score

# From paper PMC5996148
